This note sets out measurements from US20240358735A1, “THERAPEUTIC COMPOSITIONS AND RELATED METHODS” (BOYCE THOMPSON INSTITUTE FOR PLANT RESEARCH, INC., priority 2021, published 2024).

The first series deals with C. elegans wildtype (N2). In words: Endo-metabolome of staged starved and fed cultures, targeted HPLC-HRMS. Particulars: 24 hr starvation, C. elegans wildtype larval stages and adults.
In the case of `O=P(O)(O)O[C@@H]1[C@@H](O)[C@H](n2ccc3ccccc32)O[C@H](CO)[C@H]1O` [iglu #2], the “abundance under starvation relative to fed conditions (in words)” value was “reduced during starvation”.

Another series relates to Cel-cest-1.2 mutants. In words: Comparative metabolomics (HPLC-HRMS) of Cel-cest-1.2 mutants versus wildtype C. elegans (N2). The following applies: abundance of the metabolite in Cel-cest-1.2 mutants compared to C. elegans wildtype (N2).
Take `O=C(O[C@@H]1[C@@H](OP(=O)(O)O)[C@H](O)[C@@H](COC(=O)c2ccc[nH]2)O[C@H]1n1ccc2ccccc21)c1cccnc1` [iglu#40]: the “Cel-cest-1.2 fold over WT (N2), average of 4 repeats” value (from here on “Cel-cest-1.2 fold over WT (N2)”) is recorded as 0.000169.
For the compound `O=C(OC[C@H]1O[C@@H](n2ccc3ccccc32)[C@H](OC(=O)c2ccc[nH]2)[C@@H](OP(=O)(O)O)[C@@H]1O)c1ccc(O)cc1` [iglu#60], the “Cel-cest-1.2 fold over WT (N2)” value is 0.0003972.
The same measure, in the same setting: then `CC(C)CC(=O)O[C@@H]1[C@@H](OP(=O)(O)O)[C@H](O)[C@@H](COC(=O)/C=C/c2c[nH]cn2)O[C@H]1n1ccc2ccccc21` [iglu#44], with 0.0006512; and `CCC/C=C/C(=O)OCC1OC(OC(=O)c2cccnc2)C(OC(=O)c2cccnc2)C(OP(=O)(O)O)C1O` (stereo not drawn) [nglu#7], with 0.008962; and `Nc1ccccc1C(=O)OC[C@H]1O[C@@H](NCCc2ccc(O)cc2)[C@H](OC(=O)c2ccccc2N)[C@@H](OP(=O)(O)O)[C@@H]1O` [tyglu#4], with 0.0004062.
Same read-out and setting: to `Nc1ccccc1C(=O)C[C@@H]1O[C@H](COC(=O)c2ccc(O)cc2)[C@@H](O)[C@H](OP(=O)(O)O)[C@H]1OC(=O)c1ccc(O)cc1` [angl#47] belongs 0.003957; to `Nc1ccccc1C(=O)C[C@@H]1O[C@H](COC(=O)Cc2ccc(O)cc2)[C@@H](O)[C@H](OP(=O)(O)O)[C@H]1OC(=O)c1ccccc1N` [angl#50], 0.007479; to `O=C(O[C@@H]1[C@@H](OP(=O)(O)O)[C@H](O)[C@@H](CO)O[C@H]1n1ccc2ccccc21)c1ccc(O)cc1` [iglu#181], 0.004916.
Same read-out and setting: to `C/C=C(\C)C(=O)OC[C@H]1O[C@@H](Oc2ccc(CCN)cc2)[C@H](OC(=O)c2ccc[nH]2)[C@@H](OP(=O)(O)O)[C@@H]1O` [tyglu#19] belongs 0.0003518.
For `CC(C)CC(=O)OC1C(Oc2ccc(CCN)cc2)OC(CO)C(O)C1OP(=O)(O)O` (stereo not drawn) [tyglu#9], the “Cel-cest-1.2 fold over WT (N2)” value is listed as 0.003042.
As to `CC(C)CC(=O)OC[C@H]1O[C@@H](n2ccc3ccccc32)[C@H](OC(=O)/C=C/c2cnc[nH]2)[C@@H](OP(=O)(O)O)[C@@H]1O` [iglu#46], the “Cel-cest-1.2 fold over WT (N2)” value worked out at 0.0008888.
The same measure, in the same setting: to `CC(C)CC(=O)OC[C@H]1O[C@@H](n2ccc3ccccc32)[C@H](OC(=O)/C=C/c2cnc[nH]2)[C@@H](OP(=O)(O)O)[C@@H]1O` [iglu#45] belongs 0.001089; to `C/C=C(\C)C(=O)OC[C@H]1O[C@@H](OC(=O)c2ccccc2N)[C@H](OC(=O)c2ccccc2N)[C@@H](OP(=O)(O)O)[C@@H]1O` [iglu#88], 0.00003421; to `O=C(O[C@@H]1[C@@H](OP(=O)(O)O)[C@H](O)[C@@H](COC(=O)c2ccc[nH]2)O[C@H]1n1ccc2ccccc21)c1cccnc1` [iglu#39], 0.0003144.
On the same count and under the same terms, to `O=C(OC[C@H]1O[C@@H](n2ccc3ccccc32)[C@H](OC(=O)c2ccccc2)[C@@H](OP(=O)(O)O)[C@@H]1O)c1cccnc1` [iglu#36] belongs 0.003368.
The same measure, in the same setting: then `Nc1ccccc1C(=O)O[C@@H]1O[C@H](COC(=O)c2cccnc2)[C@@H](O)[C@H](OP(=O)(O)O)[C@H]1OC(=O)c1ccc[nH]1` [angl#24], with 0.00003421; and `C[C@H](CCCC/C=C/C(=O)OC[C@H]1O[C@@H](n2ccc3ccccc32)[C@H](OC(=O)c2ccccc2)[C@@H](OP(=O)(O)O)[C@@H]1O)O[C@@H]1O[C@@H](C)[C@H](O)C[C@H]1O` [iglas#301], with 0.0005506; and `NCCc1ccc(O[C@@H]2O[C@H](COC(=O)Cc3ccc(O)cc3)[C@@H](O)[C@H](OP(=O)(O)O)[C@H]2OC(=O)c2ccccc2N)cc1` [tyglu#37], with 0.01231.
On to `C[C@H](CC/C=C/C(=O)OC[C@H]1O[C@@H](n2ccc3cc(O)ccc32)[C@H](OC(=O)c2ccccc2)[C@@H](OP(=O)(O)O)[C@@H]1O)O[C@@H]1O[C@@H](C)[C@H](O)C[C@H]1O` [higlas#7], for which the “Cel-cest-1.2 fold over WT (N2)” value is 0.0002976.
Same read-out and setting: to `C/C=C(\C)C(=O)O[C@@H]1[C@@H](OP(=O)(O)O)[C@H](O)[C@@H](COC(=O)c2ccccc2N)O[C@H]1n1ccc2ccccc21` [iglu#42] belongs 0.001624; to `CC(C)CC(=O)O[C@@H]1[C@@H](OP(=O)(O)O)[C@H](O)[C@@H](CO)O[C@H]1n1ccc2ccccc21` [iglu#141], 0.0009611.
Still for that read-out and setting: then `O=C(C[C@@H]1O[C@H](COC(=O)c2ccc[nH]2)[C@@H](O)[C@H](OP(=O)(O)O)[C@H]1OC(=O)c1ccc[nH]1)c1ccccc1` [bzglu#10], with 0.000478; and `CCCC(O)CC(=O)CC(=O)OC[C@H]1O[C@@H](Oc2ccc(CCN)cc2)[C@H](OC(=O)c2ccccc2N)[C@@H](OP(=O)(O)O)[C@@H]1O` (stereo partly drawn) [tyglu#45], with 0.01914.
On the same count and under the same terms, then `NCCc1ccc(O[C@@H]2O[C@H](COC(=O)c3ccccc3N)[C@@H](O)[C@H](OP(=O)(O)O)[C@H]2O)cc1` [tyglu#2], with 0.0003551; and `O=C(/C=C/c1c[nH]cn1)OCC1OC(n2ccc3ccccc32)C(OC(=O)c2ccc[nH]2)C(OP(=O)(O)O)C1O` (stereo not drawn) [iglu#62], with 0.001818; and `C/C=C(\C)C(=O)OC[C@H]1O[C@@H](Cc2ccc(C(O)CN)cc2)[C@H](OC(=O)c2ccccc2N)[C@@H](OP(=O)(O)O)[C@@H]1O` (stereo partly drawn) [oglu#10], with 0.002545.
Take `Nc1ccccc1C(=O)OCC1OC(n2ccc3ccccc32)C(OC(=O)c2ccccc2)C(OP(=O)(O)O)C1O` (stereo not drawn) [iglu#66]: the “Cel-cest-1.2 fold over WT (N2)” value worked out at 0.0001206.
On the same count and under the same terms, then `O=C(OC[C@H]1O[C@@H](n2ccc3ccccc32)[C@H](OC(=O)c2cccnc2)[C@@H](OP(=O)(O)O)[C@@H]1O)c1ccccc1` [iglu#54], with 0.0003206.
On the same count and under the same terms, to `Nc1ccccc1C(=O)OC[C@H]1O[C@@H](n2ccc3ccccc32)[C@H](OC(=O)c2ccc[nH]2)[C@@H](OP(=O)(O)O)[C@@H]1O` [iglu#57] belongs 0.0002419.
Still for that read-out and setting: then `CCC(=O)OC[C@H]1O[C@@H](n2ccc3ccccc32)[C@H](OC(=O)c2ccccc2N)[C@@H](OP(=O)(O)O)[C@@H]1O` [iglu#24], with 0.0007803.
For the compound `C[C@H](CCCCC(=O)OC[C@H]1O[C@@H](n2ccc3ccccc32)[C@H](OC(=O)c2ccccc2)[C@@H](OP(=O)(O)O)[C@@H]1O)O[C@@H]1O[C@@H](C)[C@H](O)C[C@H]1O` [iglas#101], the “Cel-cest-1.2 fold over WT (N2)” value was determined as 0.0007881.
Consider `C[C@H](CC(=O)OC[C@H]1O[C@@H](Oc2ccc(CCN)cc2)[C@H](OC(=O)c2ccccc2N)[C@@H](OP(=O)(O)O)[C@@H]1O)O[C@@H]1O[C@@H](C)[C@H](O)C[C@H]1O` [tyglas#11], for which the “Cel-cest-1.2 fold over WT (N2)” value came to 0.005787.
Still for that read-out and setting: then `Nc1ccccc1C(=O)OC[C@H]1O[C@@H](CC(=O)c2ccc(O)cc2)[C@H](OC(=O)c2ccc(O)cc2)[C@@H](OP(=O)(O)O)[C@@H]1O` [angl#48], with 0.01184; and `Nc1ccccc1C(=O)O[C@@H]1O[C@H](CO)[C@@H](O)[C@H](OP(=O)(O)O)[C@H]1OC(=O)c1ccccc1N` [angl#401], with 0.01012; and `O=C(O[C@H]1[C@H](OC(=O)c2ccc[nH]2)O[C@H](CO)[C@@H](O)[C@@H]1OP(=O)(O)O)c1ccccc1` [pyglu#201], with 0.001844.
Still for that read-out and setting: then `CCC(=O)OC1C(OP(=O)(O)O)C(O)C(COC(=O)c2cccnc2)OC1n1ccc2ccccc21` (stereo not drawn) [iglu#19], with 0.00262; and `Nc1ccccc1C(=O)OC[C@H]1O[C@@H](n2ccc3ccccc32)[C@H](OC(=O)c2ccccc2N)[C@@H](CP(=O)(O)O)[C@@H]1O` [iglu#74], with 0.00003983.
The same measure, in the same setting: then `C/C=C(\C)C(=O)OCC1OC(OC(=O)c2cccnc2)C(OC(=O)c2ccccc2)C(OP(=O)(O)O)C1O` (stereo not drawn) [nglu#4], with 0.001611.

The same series, now with this note: relative to wildtype C. elegans.
As for `Nc1ccccc1C(=O)O[C@H]1O[C@H](CO)[C@@H](O)[C@H](OP(=O)(O)O)[C@H]1O` [angl #2], the “production in the Cel-cest-1.2 mutant (in words)” value was “not abolished”.

The test system of a further series is Cbr-cest-2 mutants. Kind of series: Comparative metabolomics (HPLC-HRMS) of Cbr-cest-2 mutants versus wildtype C. briggsae (AF16). The following applies: relative to wildtype C. briggsae.
As to `C[C@H](CCC(=O)O[C@H]1[C@H](Oc2ccc(CCN)cc2)O[C@H](CO)[C@@H](O)[C@@H]1OP(=O)(O)O)O[C@@H]1O[C@@H](C)[C@H](O)C[C@H]1O` [tyglas #9], the “biosynthesis in Cbr-cest-2 mutants (in words)” value is listed as “defective in the biosynthesis”.
Same read-out and setting: to `C/C=C(\C)C(=O)O[C@H]1[C@H](Oc2ccc(CCN)cc2)O[C@H](CO)[C@@H](O)[C@@H]1OP(=O)(O)O` [tyglu #701] belongs “Cbr-cest-2-dependent”.
